According to paper PMC11165526:
Results are given in words; binding and its absence hold for the method and conditions named. Binding seen in cells or lysates may run through a third protein. A yes stands for co-enrichment or nearness to the bait. Other partners may have been found.

The chains behind the UniProt entries cited, without tags or fusion partners.
UniProt O95619: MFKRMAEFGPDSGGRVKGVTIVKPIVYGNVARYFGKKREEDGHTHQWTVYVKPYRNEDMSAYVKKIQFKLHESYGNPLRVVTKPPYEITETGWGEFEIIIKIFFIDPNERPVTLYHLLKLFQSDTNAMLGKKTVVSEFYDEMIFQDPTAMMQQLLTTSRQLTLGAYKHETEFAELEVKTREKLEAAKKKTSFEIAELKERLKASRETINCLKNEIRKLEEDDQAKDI

Target: YEATS4-V5-TurboID (human) (UniProt O95619)
Assay: proximity labelling; cells expressing YEATS4-V5-TurboID, 50 µM biotin for 30 min; lysis in RIPA-SDS buffer; streptavidin beads; mass spectrometry

B1: KANSL1, endogenous (protein, UniProt Q7Z3B3 1-1105)
chain: MAAMAPALTDAAAEAHHIRFKLAPPSSTLSPGSAENNGNANILIAANGTKRKAIAAEDPSLDFRNNPTKEDLGKLQPLVASYLCSDVTSVPSKESLKLQGVFSKQTVLKSHPLLSQSYELRAELLGRQPVLEFSLENLRTMNTSGQTALPQAPVNGLAKKLTKSSTHSDHDNSTSLNGGKRALTSSALHGGEMGGSESGDLKGGMTNCTLPHRSLDVEHTTLYSNNSTANKSSVNSMEQPALQGSSRLSPGTDSSSNLGGVKLEGKKSPLSSILFSALDSDTRITALLRRQADIESRARRLQKRLQVVQAKQVERHIQHQLGGFLEKTLSKLPNLESLRPRSQLMLTRKAEAALRKAASETTTSEGLSNFLKSNSISEELERFTASGIANLRCSEQAFDSDVTDSSSGGESDIEEEELTRADPEQRHVPLRRRSEWKWAADRAAIVSRWNWLQAHVSDLEYRIRQQTDIYKQIRANKGLIVLGEVPPPEHTTDLFLPLSSEVKTDHGTDKLIESVSQPLENHGAPIIGHISESLSTKSCGALRPVNGVINTLQPVLADHIPGDSSDAEEQLHKKQRLNLVSSSSDGTCVAARTRPVLSCKKRRLVRPNSIVPLSKKVHRNSTIRPGCDVNPSCALCGSGSINTMPPEIHYEAPLLERLSQLDSCVHPVLAFPDDVPTSLHFQSMLKSQWQNKPFDKIKPPKKLSLKHRAPMPGSLPDSARKDRHKLVSSFLTTAKLSHHQTRPDRTHRQHLDDVGAVPMVERVTAPKAERLLNPPPPVHDPNHSKMRLRDHSSERSEVLKHHTDMSSSSYLAATHHPPHSPLVRQLSTSSDSPAPASSSSQVTASTSQQPVRRRRGESSFDINNIVIPMSVAATTRVEKLQYKEILTPSWREVDLQSLKGSPDEENEEIEDLSDAAFAALHAKCEEMERARWLWTTSVPPQRRGSRSYRSSDGRTTPQLGSANPSTPQPASPDVSSSHSLSEYSHGQSPRSPISPELHSAPLTPVARDTPRHLASEDTRCSTPELGLDEQSVQPWERRTFPLAHSPQAECEDQLDAQERAARCTRRTSGSKTGRETEAAPTSPPIVPLKSRHLVAAATAQRPTHR
modifications: biotin (by proximity labelling)
- binding: binds
